In assay [1] the test system is 11 gynecologic cancer cell lines. Description: qHTS ATPlite cell viability, gynecologic cancer cell lines (ovarian, cervical, placental). The format is cell-based, human. To be noted: toxic compounds, average over all cancer cell lines, mean ± S.D. The method, then: (§1) The ATPlite luminescence assay system assay kit was used to determine cell viability. The reagent was reconstituted and prepared as described by the manufacturer. To measure the cell death caused by the compounds, cells were cultured in 4 μl of media for 16 hours at 37°C with 5% CO2 in assay plates, followed by the addition of DMSO or 16 SOC chemotherapeutic compounds dissolved in DMSO. SOC compounds were dosed at 11 concentrations (1:3 dilution) in quadruplicate from 57.5 μM to 0.977 nM using the automated Wako 1536 Pin Tool workstation and incubated at 37°C with 5% CO2 for 24, 48, or 72 hours. Four microliters of ATPlite, the ATP monitoring reagent, was then added to each well of the assay plates using the Multidrop Combi reagent dispenser followed by incubation for 15 minutes at room temperature. The resulting luminescence was measured using the ViewLux plate reader. Data were normalized for each drug using the largest luminescence value as 100% full cell viability (0% cell killing) and to the smallest luminescence value 0% viability (100% cell killing).
(§2) A qHTS [79], in which each compound was assayed in five concentrations (0.092, 0.46, 2.3, 11.5, and 57.5 μM), was performed for the primary compound screen using the NPC [80] and NPACT drug libraries at NCATS. […]
On the technique in general: qHTS replaces the single test concentration by a dilution series.

The subject of assay [2] is HEK 293T cells. The assay can be described thus: cells. To be noted: Homo sapiens, 48 h, read-out: IC50 (HEK 293T toxicity). The method, then:
as §1, §2

Assay [3] has as its system HEK 293T cells. Also on record: method as in PMID 31498718. To be noted: independent screen, CellTiterGlo; cited from earlier work. On the technique in general: In ATP-based viability assays light output follows the ATP content of the culture.

SMILES strings stand for the structures. Where two headings read alike, the source gives them in different places.

A word on the IC50: it is the concentration that inhibits the measured activity by half. Consider `O=C(CCCCCCC(=O)Nc1ccccc1)NO` [Vorinostat], for which the 50% inhibitory concentration (IC50) is 5.5 ± 4.17 µM in assay [1] (Homo sapiens, 48 h); 11.3 µM in the assay with HEK 293T cells [2]; 4.09 µM in the assay with HEK 293T cells [3]. In addition, the “Average SI” value in assay [1] (selectivity index vs HEK 293T) is on record as 3.72 ± 2.24.

The values above are taken from article PMC6302136, “Quantitative Chemotherapeutic Profiling of Gynecologic Cancer Cell Lines Using Approved Drugs and Bioactive Compounds^” (Translational Oncology, 2018).
